Results: PMC5333127, “RD26 mediates crosstalk between drought and brassinosteroid signalling pathways” (Nature Communications, 2017)
No constants are given. Whether binding was seen depends on the method and setting. In cells and extracts the contact can be indirect. Some results given as binding are weak or reduced against the parent protein; the word gives no strength. For part of these data: Where a sequence is shown, tags or fusion partners need not be part of it. Each block holds one binder with its values, some of them ahead of it.

Sequences of proteins named here, by UniProt entry; tags and fusion partners are left off.
UniProt Q9LN63: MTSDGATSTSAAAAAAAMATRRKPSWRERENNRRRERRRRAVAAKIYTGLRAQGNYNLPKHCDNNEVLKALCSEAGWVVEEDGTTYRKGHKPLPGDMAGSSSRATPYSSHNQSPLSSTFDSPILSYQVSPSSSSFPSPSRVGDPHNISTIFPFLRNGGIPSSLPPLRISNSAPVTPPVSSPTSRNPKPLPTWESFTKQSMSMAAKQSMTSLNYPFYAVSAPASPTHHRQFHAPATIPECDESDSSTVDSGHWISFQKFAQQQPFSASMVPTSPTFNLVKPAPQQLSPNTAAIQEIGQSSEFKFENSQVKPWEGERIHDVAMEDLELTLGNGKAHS

How the values were obtained:
CLuc-BES1 (Arabidopsis) = CLuc-BES1 (Arabidopsis) (UniProt Q9LN63); experiment: split reporter; split luciferase complementation; RD26-NLuc and CLuc-BES1 co-expressed in tobacco leaves via Agrobacterium; Luc activity measured in protein extracts and normalized against total protein
BES1-YFPN (Arabidopsis) = BES1-YFPN (Arabidopsis) (UniProt Q9LN63); experiment: split reporter; BiFC; BES1-YFPN and RD26-YFPC co-expressed in Nicotiana benthamiana leaves; YFP seen by confocal microscopy 2 days after infiltration
BES1-GFP (Arabidopsis) = BES1-GFP (Arabidopsis) (UniProt Q9LN63); experiment: co-IP; BES1-GFP and RD26-MYC co-expressed in tobacco leaves; protein extract immunoprecipitated with anti-GFP antibody and protein A beads at 4 °C; lysis buffer with 75 mM NaCl, 0.05% SDS, 0.1% Triton X-100, pH 7.4; blotted with anti-BES1 and anti-MYC

binding (CLuc-BES1 (Arabidopsis)): binds
B1: RD26-NLuc (protein, UniProt Q93VY3 1-297)
chain: MGVREKDPLAQLSLPPGFRFYPTDEELLVQYLCRKVAGYHFSLQVIGDIDLYKFDPWDLPSKALFGEKEWYFFSPRDRKYPNGSRPNRVAGSGYWKATGTDKIITADGRRVGIKKALVFYAGKAPKGTKTNWIMHEYRLIEHSRSHGSSKLDDWVLCRIYKKTSGSQRQAVTPVQACREEHSTNGSSSSSSSQLDDVLDSFPEIKDQSFNLPRMNSLRTILNGNFDWASLAGLNPIPELAPTNGLPSYGGYDAFRAAEGEAESGHVNRQQNSSGLTQSFGYSSSGFGVSGQTFEFRQ

binding (BES1-YFPN (Arabidopsis)): binds
B2: RD26-YFPC (protein, UniProt Q93VY3 1-297)
chain: MGVREKDPLAQLSLPPGFRFYPTDEELLVQYLCRKVAGYHFSLQVIGDIDLYKFDPWDLPSKALFGEKEWYFFSPRDRKYPNGSRPNRVAGSGYWKATGTDKIITADGRRVGIKKALVFYAGKAPKGTKTNWIMHEYRLIEHSRSHGSSKLDDWVLCRIYKKTSGSQRQAVTPVQACREEHSTNGSSSSSSSQLDDVLDSFPEIKDQSFNLPRMNSLRTILNGNFDWASLAGLNPIPELAPTNGLPSYGGYDAFRAAEGEAESGHVNRQQNSSGLTQSFGYSSSGFGVSGQTFEFRQ

binding (BES1-GFP (Arabidopsis)): binds
B3: RD26-MYC (protein, UniProt Q93VY3 1-297)
chain: MGVREKDPLAQLSLPPGFRFYPTDEELLVQYLCRKVAGYHFSLQVIGDIDLYKFDPWDLPSKALFGEKEWYFFSPRDRKYPNGSRPNRVAGSGYWKATGTDKIITADGRRVGIKKALVFYAGKAPKGTKTNWIMHEYRLIEHSRSHGSSKLDDWVLCRIYKKTSGSQRQAVTPVQACREEHSTNGSSSSSSSQLDDVLDSFPEIKDQSFNLPRMNSLRTILNGNFDWASLAGLNPIPELAPTNGLPSYGGYDAFRAAEGEAESGHVNRQQNSSGLTQSFGYSSSGFGVSGQTFEFRQ
